# In US20260079169A1, “VOLATILE ORGANIC COMPOUNDS AS MARKERS FOR CELLULAR COMMUNICATION” (Technion Research and Development Foundation Limited, priority 2020, published 2026):
# What was measured:
# [1] = tested on: A549, H1299, H1975 human lung cancer lines and BEAS-2B normal cell line, each cultured alone; test: VOCs headspace analysis (ITEX GC-MS) of mono-culture groups (Format-1), bulk cell samples 1×10^4 cells; type: cell-based; set-up: key to Category (VOC increased or decreased relative to the control): ↑: Increased; ↓: decreased; ↑*: <0.01; ↑**: <0.001; details: for VOC level in headspace, area under curve (AUC) normalized by STD AUC: bulk 1 × 10^4 cell
# [2] = tested on: different-cell pairs of BEAS-2B, A549, H1299, H1975 without physical contact under a mutual headspace; test: VOCs headspace analysis (ITEX GC-MS) of different-cell pair co-culture headspace groups (Format-3), bulk cell samples; type: cell-based, human; set-up: key to Category (VOC increased or decreased relative to the control): ↑: Increased; ↓: decreased; ↑*: <0.01; ↑**: <0.001; details: for VOC level in headspace, area under curve (AUC) normalized by STD AUC: bulk 1 × 10^4 cell
# [3] = mono-culture groups (Format-1), 24 h incubation, averaged peak area (n = 3)
# [4] = different-cell pair co-culture headspace (Format-3), 24 h, averaged peak area (n = 3)
# [5] = different-cell pair co-culture headspace (Format-3), 48 h, averaged peak area (n = 3)
# [6] = mono-culture groups (Format-1), 48 h incubation, averaged peak area (n = 3)
# [7] = different-cell pair co-culture headspace (Format-3), 72 h, averaged peak area (n = 3)
# [8] = mono-culture groups (Format-1), 72 h incubation, averaged peak area (n = 3)
smiles,measurement,setting,value
"CCCCC(CC)CO (stereo not drawn) [1-Hexanol, 2-ethyl-]",Category (VOC increased or decreased relative to the control),[1]; [3],↑* (↑*: <0.01)
same,Category (VOC increased or decreased relative to the control),[2]; [4],↑* (↑*: <0.01)
same,Category (VOC increased or decreased relative to the control),[2]; [5],↓
"CC1(C)CCO1 [2,2-Dimethyloxetane]",Category (VOC increased or decreased relative to the control),[1]; [6],↑* (↑*: <0.01)
same,Category (VOC increased or decreased relative to the control),[2]; [7],↑
"CC(C)(C)c1ccc(O)c(C(C)(C)C)c1 [2,4-Di-tert-butylphenol]",Category (VOC increased or decreased relative to the control),[1]; [6],↑
same,Category (VOC increased or decreased relative to the control),[2]; [4],↑
"C=C(C)CCC(C)CC (stereo not drawn) [2,5-Dimethyl-1-heptene]",Category (VOC increased or decreased relative to the control),[1]; [3],↓
"CC(C)(O)CCC(C)(C)O [2,5-Dimethyl-2,5-hexanediol]",Category (VOC increased or decreased relative to the control),[1]; [3],↓
"CC(C)(C)c1cccc(C(C)(C)C)c1O [2,6-Di-tert-butylphenol]",Category (VOC increased or decreased relative to the control),[1]; [8],↑
same,Category (VOC increased or decreased relative to the control),[2]; [7],↑
CCC(C)=O [2-Butanone],Category (VOC increased or decreased relative to the control),[1]; [6],↑* (↑*: <0.01)
CCCCC(C)=O [2-Hexanone],Category (VOC increased or decreased relative to the control),[1]; [6],↑
CC(C)CO [2-Methyl-1-propanol],Category (VOC increased or decreased relative to the control),[1]; [6],↑
CC(=O)CCC=C(C)C [2-Methyl-2-hepten-6-one],Category (VOC increased or decreased relative to the control),[1]; [3],↑* (↑*: <0.01)
same,Category (VOC increased or decreased relative to the control),[1]; [8],↑* (↑*: <0.01)
CCCCCCC(C)=O [2-Octanone],Category (VOC increased or decreased relative to the control),[1]; [6],↑
CCCC(C)=O [2-Pentanone],Category (VOC increased or decreased relative to the control),[1]; [6],↑* (↑*: <0.01)
C=C(C)CCO [3-Methyl-3-buten-1-ol],Category (VOC increased or decreased relative to the control),[1]; [3],↑
same,Category (VOC increased or decreased relative to the control),[1]; [6],↑
CCCCCC(O)CC (stereo not drawn) [3-Octanol],Category (VOC increased or decreased relative to the control),[1]; [3],↑
"CC(=O)CC(C)CC(C)C (stereo not drawn) [4,6-Dimethyl-2-heptanone]",Category (VOC increased or decreased relative to the control),[1]; [3],↓
same,Category (VOC increased or decreased relative to the control),[2]; [7],↑
CC(=O)CCOC(C)C [4-Isopropoxy-2-butanone],Category (VOC increased or decreased relative to the control),[1]; [6],↑
same,Category (VOC increased or decreased relative to the control),[2]; [5],↓
Cc1ccc(CO)cc1 [4-Methylbenzyl alcohol],Category (VOC increased or decreased relative to the control),[1]; [6],↑* (↑*: <0.01)
same,Category (VOC increased or decreased relative to the control),[2]; [5],↑* (↑*: <0.01)
CCCCC(O)CCC (stereo not drawn) [5-Octanol],Category (VOC increased or decreased relative to the control),[1]; [3],↑
CC#N [Acetonitrile],Category (VOC increased or decreased relative to the control),[1]; [8],↑* (↑*: <0.01)
CC(=O)CCC(C)=O [Acetonylacetone],Category (VOC increased or decreased relative to the control),[1]; [6],↑* (↑*: <0.01)
CC(=O)c1ccccc1 [Acetophenone],Category (VOC increased or decreased relative to the control),[1]; [3],↑* (↑*: <0.01)
same,Category (VOC increased or decreased relative to the control),[1]; [6],↑* (↑*: <0.01)
O=Cc1ccccc1 [Benzaldehyde],Category (VOC increased or decreased relative to the control),[1]; [3],↑
same,Category (VOC increased or decreased relative to the control),[1]; [8],↑
"CC(C)CC=O [Butanal, 3-methyl-]",Category (VOC increased or decreased relative to the control),[1]; [3],↑* (↑*: <0.01)
same,Category (VOC increased or decreased relative to the control),[1]; [8],↑* (↑*: <0.01)
same,Category (VOC increased or decreased relative to the control),"[1]; mono-culture groups (Format-1), 72 h incubation, averaged peak area (n = 3), listed as 3-methyl butanal",↑
CCCCOC(=O)c1ccc(O)cc1 [Butylparaben],Category (VOC increased or decreased relative to the control),[1]; [8],↑
same,Category (VOC increased or decreased relative to the control),[2]; [4],↑
O=C1CCCCC1 [Cyclohexanone],Category (VOC increased or decreased relative to the control),[1]; [8],↓
CCOCC [Diethyl ether],Category (VOC increased or decreased relative to the control),[1]; [6],↑* (↑*: <0.01)
COC(=O)CCC(=O)OC [Dimethyl succinate],Category (VOC increased or decreased relative to the control),[1]; [6],↑** (↑**: <0.001)
same,Category (VOC increased or decreased relative to the control),[2]; [5],↑* (↑*: <0.01)
"CCCCCCC(C)CC(C)CCC (stereo not drawn) [Dodecane, 4,6-dimethyl-]",Category (VOC increased or decreased relative to the control),[1]; [3],↑* (↑*: <0.01)
same,Category (VOC increased or decreased relative to the control),[1]; [8],↑* (↑*: <0.01)
CCO [Ethanol],Category (VOC increased or decreased relative to the control),[1]; [6],↑
same,Category (VOC increased or decreased relative to the control),[2]; [4],↑
same,Category (VOC increased or decreased relative to the control),[2]; [7],↑* (↑*: <0.01)
"CC(CC(C)(C)C)CC(C)(C)C [Heptane, 2,2,4,6,6-pentamethyl-]",Category (VOC increased or decreased relative to the control),[1]; [3],↑* (↑*: <0.01)
same,Category (VOC increased or decreased relative to the control),[1]; [8],↓
CCCC(O)C(CC)COC(=O)C(C)C (stereo not drawn) [Isobutyric acid 2-ethyl-3-hydroxyhexyl ester],Category (VOC increased or decreased relative to the control),[1]; [6],↑
same,Category (VOC increased or decreased relative to the control),[2]; [7],↓
CC1=CC(=O)CC(C)(C)C1 [Isophorone],Category (VOC increased or decreased relative to the control),[1]; [8],↓
C=CC(C)=O [Methyl vinyl ketone],Category (VOC increased or decreased relative to the control),[1]; [6],↑* (↑*: <0.01)
same,Category (VOC increased or decreased relative to the control),[2]; [7],↑
CCCCCCCCC=O [Nonanal],Category (VOC increased or decreased relative to the control),[1]; [3],↑
"CCCCC(C)(CCC)CCCC [Nonane, 5-methyl-5-propyl-]",Category (VOC increased or decreased relative to the control),[1]; [3],↑
same,Category (VOC increased or decreased relative to the control),[1]; [8],↓
Oc1ccccc1 [Phenol],Category (VOC increased or decreased relative to the control),[1],↓
same,Category (VOC increased or decreased relative to the control),[2],↓
c1cc[nH]c1 [Pyrrole],Category (VOC increased or decreased relative to the control),[1]; [6],↑* (↑*: <0.01)
same,Category (VOC increased or decreased relative to the control),[2]; [7],↑
CCCCCCCCCCCCCC [Tetradecane],Category (VOC increased or decreased relative to the control),[1]; [3],↑
same,Category (VOC increased or decreased relative to the control),[2]; [4],↑* (↑*: <0.01)
"CCCC(C)CCCCC(C)CC (stereo not drawn) [Undecane, 3,8-dimethyl-]",Category (VOC increased or decreased relative to the control),[1]; [3],↑* (↑*: <0.01)
same,Category (VOC increased or decreased relative to the control),[1]; [8],↑* (↑*: <0.01)
CCC(C)C=O (stereo not drawn) [VOC1],"VOC level in headspace, area under curve (AUC) normalized by STD AUC",[1]; A (BEAS-2B) mono-culture,0
same,"VOC level in headspace, area under curve (AUC) normalized by STD AUC",[1]; B (A549) mono-culture,0
same,"VOC level in headspace, area under curve (AUC) normalized by STD AUC",[1]; C (H1299) mono-culture,0
same,"VOC level in headspace, area under curve (AUC) normalized by STD AUC",[1]; D (H1975) mono-culture,0
same,"VOC level in headspace, area under curve (AUC) normalized by STD AUC",[2]; A + B (BEAS-2B + A549),0
same,"VOC level in headspace, area under curve (AUC) normalized by STD AUC",[2]; A + C (BEAS-2B + H1299),0
same,"VOC level in headspace, area under curve (AUC) normalized by STD AUC",[2]; A + D (BEAS-2B + H1975),0
same,"VOC level in headspace, area under curve (AUC) normalized by STD AUC",[2]; B + C (A549 + H1299),0
same,"VOC level in headspace, area under curve (AUC) normalized by STD AUC",[2]; B + D (A549 + H1975),0
same,"VOC level in headspace, area under curve (AUC) normalized by STD AUC",[2]; C + D (H1299 + H1975),0
O=Cc1ccccc1 [VOC2],"VOC level in headspace, area under curve (AUC) normalized by STD AUC",[1]; A (BEAS-2B) mono-culture,0
same,"VOC level in headspace, area under curve (AUC) normalized by STD AUC",[1]; B (A549) mono-culture,0
same,"VOC level in headspace, area under curve (AUC) normalized by STD AUC",[1]; C (H1299) mono-culture,0
same,"VOC level in headspace, area under curve (AUC) normalized by STD AUC",[1]; D (H1975) mono-culture,0
same,"VOC level in headspace, area under curve (AUC) normalized by STD AUC",[2]; A + B (BEAS-2B + A549),9.291
same,"VOC level in headspace, area under curve (AUC) normalized by STD AUC",[2]; A + C (BEAS-2B + H1299),6.46
same,"VOC level in headspace, area under curve (AUC) normalized by STD AUC",[2]; A + D (BEAS-2B + H1975),6.343
same,"VOC level in headspace, area under curve (AUC) normalized by STD AUC",[2]; B + C (A549 + H1299),7.116
same,"VOC level in headspace, area under curve (AUC) normalized by STD AUC",[2]; B + D (A549 + H1975),3.98
same,"VOC level in headspace, area under curve (AUC) normalized by STD AUC",[2]; C + D (H1299 + H1975),7.712
CC(C)CC=O [VOC3],"VOC level in headspace, area under curve (AUC) normalized by STD AUC",[1]; A (BEAS-2B) mono-culture,0
same,"VOC level in headspace, area under curve (AUC) normalized by STD AUC",[1]; B (A549) mono-culture,0
same,"VOC level in headspace, area under curve (AUC) normalized by STD AUC",[1]; C (H1299) mono-culture,0
same,"VOC level in headspace, area under curve (AUC) normalized by STD AUC",[1]; D (H1975) mono-culture,0
same,"VOC level in headspace, area under curve (AUC) normalized by STD AUC",[2]; A + B (BEAS-2B + A549),0
same,"VOC level in headspace, area under curve (AUC) normalized by STD AUC",[2]; A + C (BEAS-2B + H1299),0
same,"VOC level in headspace, area under curve (AUC) normalized by STD AUC",[2]; A + D (BEAS-2B + H1975),0
same,"VOC level in headspace, area under curve (AUC) normalized by STD AUC",[2]; B + C (A549 + H1299),0
same,"VOC level in headspace, area under curve (AUC) normalized by STD AUC",[2]; B + D (A549 + H1975),0
same,"VOC level in headspace, area under curve (AUC) normalized by STD AUC",[2]; C + D (H1299 + H1975),0

# Read-outs that look alike come from different tables or passages of the source. The amount applied is not stated for every result.
